Test results: the supplement of paper PMC11732987, “Enantioselective OTUD7B fragment discovery through chemoproteomics screening and high-throughput optimisation” (Communications Chemistry, 2025)
This is one part of the list. The data scatter; read single values as rough.

These targets were tested with ClCC(=O)N[C@@H]1CCCc2ccccc12 (assay: log2 mean competition ratio of IA-DTB cysteine labelling (DMSO/compound) (log2 ratio); higher = stronger cysteine engagement by compound). Conditions: 50 µM; treatment time: 4 h; cell line lysate: HEK293T.
Method: (§1)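 IA-DTB competitive cysteine chemoproteomics in HEK293T RIPA lysate. Lysates were treated with compound 29 or 30 at 50 or 200 µM for 4 h, then IA-DTB (500 µM, 1 h), trypsin-digested, NeutrAvidin-enriched and analysed by diaPASEF. Competition ratio = intensity DMSO / intensity compound (n=4 treated, n=64 DMSO); binding: mean log2 CR ≥ 1 and p ≤ 0.05 plus QC filters. Target is the cysteine site.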

Target | log2 mean competition ratio
CSRP2 C25 (UniProt Q16527) | -0.266
DCAF5 C728 (UniProt Q96JK2) | -0.059
DAXX C728 (UniProt Q9UER7) | -0.29
DAPK3 C349 (UniProt O43293) | -0.69
CSE1L C85 (UniProt P55060) | -0.256
DDB1 C128 (UniProt Q16531) | -0.124
CUL4B C810 | -0.297
DDX5 C191 (UniProt P17844) | -0.405
CUL3 C251 (UniProt Q13618) | 0.0887
DDX6 C390 (UniProt P26196) | -0.0283
CXorf38 C12 (UniProt Q8TB03) | -0.0311
DCTN1 C791 (UniProt Q14203) | -0.156
CSRP2 C122 (UniProt Q16527) | 0.081
DDX39B C165 | 0.0111
CYFIP1 C98 | 0.00897
DCAF5 C812 (UniProt Q96JK2) | 0.144
CYFIP2 C427 (UniProt Q96F07) | -0.15
DCAF7 C109 (UniProt P61962) | -0.108
DDX51 C338 (UniProt Q8N8A6) | -0.0601

Target | log2 mean competition ratio
DDX23 C791 (UniProt Q9BUQ8) | -0.256
DDX20 C98 (UniProt Q9UHI6) | 0.545
CTU2 C2 (UniProt Q2VPK5) | -0.224
CYRIB C253 | 0.146
CTNND1 C516 (UniProt O60716) | -0.172
DDX24 C832 (UniProt Q9GZR7) | 0.135
DDX31 C413 (UniProt Q9H8H2) | 0.0824
DAB2IP C1065 (UniProt Q5VWQ8) | -0.196
CYP51A1 C351 (UniProt Q16850) | 0.367
CYFIP2 C423 (UniProt Q96F07) | 0.0602
CTPS1 C299 (UniProt P17812) | 0.0935
CTTNBP2NL C352 (UniProt Q9P2B4) | -0.108
CSRP2 C167 (UniProt Q16527) | 0.0273
CTC1 C837 (UniProt Q2NKJ3) | -0.211
CRTAP C317 (UniProt O75718) | 0.245
CWF19L1 C160 (UniProt Q69YN2) | -0.0296
DCK C45 (UniProt P27707) | -0.487
CRBN C310 (UniProt Q96SW2) | -0.0834

Same assay, conditions: 200 µM; treatment time: 4 h; cell line lysate: HEK293T

Target | log2 mean competition ratio
CSRP2 C25 (UniProt Q16527) | -0.126
DCAF5 C728 (UniProt Q96JK2) | 0.245
DAXX C728 (UniProt Q9UER7) | 0.251
DAPK3 C349 (UniProt O43293) | -0.192
CSE1L C85 (UniProt P55060) | 0.00606
DDB1 C128 (UniProt Q16531) | 0.196
CUL4B C810 | 0.00636
DDX5 C191 (UniProt P17844) | 0.12
CUL3 C251 (UniProt Q13618) | -0.353
DDX6 C390 (UniProt P26196) | -0.285
CXorf38 C12 (UniProt Q8TB03) | 0.0761
DCTN1 C791 (UniProt Q14203) | -0.0339
CSRP2 C122 (UniProt Q16527) | 0.17
DDX39B C165 | -0.352
CYFIP1 C98 | 0.00925
DCAF5 C812 (UniProt Q96JK2) | -0.0476
CYFIP2 C427 (UniProt Q96F07) | -0.207
DCAF7 C109 (UniProt P61962) | 0.0372
DDX51 C338 (UniProt Q8N8A6) | 0.163

Target | log2 mean competition ratio
DDX23 C791 (UniProt Q9BUQ8) | 0.0964
DDX20 C98 (UniProt Q9UHI6) | 0.278
CTU2 C2 (UniProt Q2VPK5) | -0.171
CYRIB C253 | -0.0568
CTNND1 C516 (UniProt O60716) | 0.0837
DDX24 C832 (UniProt Q9GZR7) | 0.05
DDX31 C413 (UniProt Q9H8H2) | 0.0476
DAB2IP C1065 (UniProt Q5VWQ8) | -0.0505
CYP51A1 C351 (UniProt Q16850) | 0.00888
CYFIP2 C423 (UniProt Q96F07) | -0.38
CTPS1 C299 (UniProt P17812) | -0.185
CTTNBP2NL C352 (UniProt Q9P2B4) | 0.049
CSRP2 C167 (UniProt Q16527) | -0.346
CTC1 C837 (UniProt Q2NKJ3) | -0.0192
CRTAP C317 (UniProt O75718) | 0.0263
CWF19L1 C160 (UniProt Q69YN2) | -0.38
DCK C45 (UniProt P27707) | 0.0745
CRBN C310 (UniProt Q96SW2) | -0.181

What follows are targets tested with ClCC(=O)N[C@H]1CCCc2ccccc12 in the same assay as above. Conditions: 50 µM; treatment time: 4 h; cell line lysate: HEK293T.
Method: as §1

Target | log2 mean competition ratio
CSRP2 C25 (UniProt Q16527) | -0.381
DCAF5 C728 (UniProt Q96JK2) | -0.231
DAXX C728 (UniProt Q9UER7) | 0.252
DAPK3 C349 (UniProt O43293) | -0.0595
CSE1L C85 (UniProt P55060) | -0.583
DDB1 C128 (UniProt Q16531) | -0.355
CUL4B C810 | -0.315
DDX5 C191 (UniProt P17844) | -0.153
CUL3 C251 (UniProt Q13618) | 0.00994
DDX6 C390 (UniProt P26196) | -0.197
CXorf38 C12 (UniProt Q8TB03) | 0.178
DCTN1 C791 (UniProt Q14203) | -0.09
CSRP2 C122 (UniProt Q16527) | -0.159
DDX39B C165 | 0.0819
CYFIP1 C98 | -0.25
DCAF5 C812 (UniProt Q96JK2) | -0.125
CYFIP2 C427 (UniProt Q96F07) | -0.239
DCAF7 C109 (UniProt P61962) | -0.177
DDX51 C338 (UniProt Q8N8A6) | -0.23

Target | log2 mean competition ratio
DDX23 C791 (UniProt Q9BUQ8) | -0.229
DDX20 C98 (UniProt Q9UHI6) | 0.582
CTU2 C2 (UniProt Q2VPK5) | 0.147
CYRIB C253 | -0.229
CTNND1 C516 (UniProt O60716) | -0.144
DDX24 C832 (UniProt Q9GZR7) | 0.348
DDX31 C413 (UniProt Q9H8H2) | -0.056
DAB2IP C1065 (UniProt Q5VWQ8) | -0.115
CYP51A1 C351 (UniProt Q16850) | 0.5
CYFIP2 C423 (UniProt Q96F07) | -0.172
CTPS1 C299 (UniProt P17812) | -0.342
CTTNBP2NL C352 (UniProt Q9P2B4) | -0.196
CSRP2 C167 (UniProt Q16527) | 0.458
CTC1 C837 (UniProt Q2NKJ3) | -0.154
CRTAP C317 (UniProt O75718) | 0.171
CWF19L1 C160 (UniProt Q69YN2) | 0.429
DCK C45 (UniProt P27707) | 0.376
CRBN C310 (UniProt Q96SW2) | -0.224
